From the supplement of paper PMC4862054
Most values lie at the level of the controls, where differences are scatter.

Tests used:
Assay in all cases: normalised response (% of control), CellTox Green; higher = less cell death (100 = DMSO, 0 = benzethonium chloride kill control)
Details in all cases: incubation time: 72 h
BT-474 = tested on: BT-474
Experimental: (§1)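 DSRT, 72 h incubation, CellTox Green / CellTiter-Glo readout. Signal is normalised to DMSO and benzethonium chloride controls. Value is the normalised response at the lowest tested concentration.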

MFM-223 = tested on: MFM-223
Experimental: as §1

BT-549 = tested on: BT-549
Experimental: as §1

CAL-51 = tested on: CAL-51
Experimental: as §1

HCC1143 = tested on: HCC1143
Experimental: as §1

HCC1599 = tested on: HCC1599
Experimental: as §1

MDA-MB-231 = tested on: MDA-MB-231
Experimental: as §1

DU-4475 = tested on: DU-4475
Experimental: as §1

MCF-10A = tested on: MCF-10A
Experimental: as §1

CAL-120 = tested on: CAL-120
Experimental: as §1

CAL-85-1 = tested on: CAL-85-1
Experimental: as §1

CAL-148 = tested on: CAL-148
Experimental: as §1

HDQ-P1 = tested on: HDQ-P1
Experimental: as §1

MDA-MB-453 = tested on: MDA-MB-453
Experimental: as §1

MDA-MB-468 = tested on: MDA-MB-468
Experimental: as §1

MDA-MB-436 = tested on: MDA-MB-436
Experimental: as §1

HCC1937 = tested on: HCC1937
Experimental: as §1

Hs578T = tested on: Hs578T
Experimental: as §1

`Cn1cc(C[C@@H](N)C(=O)O)c2ccccc21` [1-methyl-D-tryptophan] (0.5 nM) was tested, and the normalised response (BT-474) was 94.9%, the normalised response (MFM-223) was 80.2% and the normalised response (BT-549) was 86.7%. For the same compound, the normalised response (CAL-51) was 114%, the normalised response (HCC1143) was 102% and the normalised response (HCC1599) was 94.5%. For the same compound, the normalised response (MDA-MB-231) was 91.9%, the normalised response (DU-4475) was 98.3% and the normalised response (MCF-10A) was 101%. For the same compound, the normalised response (CAL-120) was 93.5%, the normalised response (CAL-85-1) was 96.7% and the normalised response (CAL-148) was 102%. For the same compound, the normalised response (HDQ-P1) was 88.6%, the normalised response (MDA-MB-453) was 102% and the normalised response (MDA-MB-468) was 64.7%. It also gave a normalised response (MDA-MB-436) of 79.8%.

In the case of `CC1=C2C[C@H]3[C@@H](CC=C4C[C@@H](O)CC[C@@]43C)[C@@H]2CC[C@]12O[C@@H]1C[C@H](C)CN[C@H]1[C@H]2C` [Cyclopamine] (1 nM), the normalised response (BT-474) is reported as 101%, the normalised response (MFM-223) is reported as 76.9% and the normalised response (HCC1937) is reported as 109%. The normalised response (BT-549) was 93.5%, the normalised response (CAL-51) was 114% and the normalised response (HCC1143) was 117%. The normalised response (HCC1599) was 100%, the normalised response (Hs578T) was 88.9% and the normalised response (DU-4475) was 103%. For the same compound, the normalised response (CAL-120) was 97.2%, the normalised response (CAL-85-1) was 106% and the normalised response (CAL-148) was 101%. It also gave a normalised response (HDQ-P1) of 101%, a normalised response (MDA-MB-453) of 101% and a normalised response (MDA-MB-468) of 56.4%. The normalised response (MDA-MB-436) was 96.4%.

`COc1cc([C@@H]2c3cc4c(cc3[C@@H](O[C@@H]3O[C@@H]5CO[C@@H](C)O[C@H]5[C@H](O)[C@H]3O)[C@H]3COC(=O)[C@H]23)OCO4)cc(OC)c1O` [Etoposide] (1 nM) gave a normalised response (BT-474) of 101%, a normalised response (MFM-223) of 84.7% and a normalised response (HCC1937) of 73.8%. It also gave a normalised response (BT-549) of 98.7%, a normalised response (CAL-51) of 120% and a normalised response (HCC1143) of 120%. The normalised response (HCC1599) was 113%, the normalised response (MDA-MB-231) was 112% and the normalised response (Hs578T) was 98.7%. The normalised response (DU-4475) was 105%, the normalised response (MCF-10A) was 108% and the normalised response (CAL-120) was 102%. The normalised response (CAL-85-1) was 96%, the normalised response (CAL-148) was 97.8% and the normalised response (HDQ-P1) was 107%. The normalised response (MDA-MB-453) was 69.6% and the normalised response (MDA-MB-436) was 92.7%.

`Oc1ccc2c(c1)CC[C@H](c1ccccc1)[C@@H]2c1ccc(OCCN2CCCC2)cc1` [Lasofoxifene] (0.1 nM) gave a normalised response (BT-474) of 104%, a normalised response (MFM-223) of 95.3% and a normalised response (HCC1937) of 109%. For the same compound, the normalised response (BT-549) was 68.8%, the normalised response (CAL-51) was 129% and the normalised response (HCC1143) was 115%. It also gave a normalised response (HCC1599) of 94.6%, a normalised response (MDA-MB-231) of 103% and a normalised response (Hs578T) of 109%. The normalised response (DU-4475) was 105%, the normalised response (CAL-120) was 99.9% and the normalised response (CAL-85-1) was 105%. For the same compound, the normalised response (CAL-148) was 85.8%, the normalised response (HDQ-P1) was 102% and the normalised response (MDA-MB-453) was 112%. It also gave a normalised response (MDA-MB-436) of 54.5%.

`Nc1nc(OCc2cc(Br)cs2)c2[nH]cnc2n1` [Lomeguatrib] (1 nM) showed a normalised response (BT-474) of 99.4%, a normalised response (MFM-223) of 103% and a normalised response (HCC1937) of 113%. The normalised response (BT-549) was 102%, the normalised response (CAL-51) was 117% and the normalised response (HCC1143) was 86.8%. It also gave a normalised response (HCC1599) of 107%, a normalised response (MDA-MB-231) of 113% and a normalised response (Hs578T) of 105%. It also gave a normalised response (DU-4475) of 104%, a normalised response (MCF-10A) of 104% and a normalised response (CAL-120) of 103%. For the same compound, the normalised response (CAL-85-1) was 101%, the normalised response (CAL-148) was 99.5% and the normalised response (HDQ-P1) was 101%. It also gave a normalised response (MDA-MB-453) of 106% and a normalised response (MDA-MB-436) of 86.9%.

For `C=CCn1c(=O)c2cnc(Nc3ccc(N4CCN(C)CC4)cc3)nc2n1-c1cccc(C(C)(C)O)n1` [MK1775] (1 nM), the normalised response (BT-474) was 74.3%, the normalised response (MFM-223) was 96.2% and the normalised response (BT-549) was 104%. It also gave a normalised response (CAL-51) of 107%, a normalised response (HCC1143) of 78% and a normalised response (HCC1599) of 89.2%. The normalised response (MDA-MB-231) was 89.3%, the normalised response (DU-4475) was 87.6% and the normalised response (MCF-10A) was 72%. The normalised response (CAL-120) was 96.7%, the normalised response (CAL-85-1) was 94.4% and the normalised response (CAL-148) was 65.3%. For the same compound, the normalised response (HDQ-P1) was 91.8%, the normalised response (MDA-MB-453) was 98.7% and the normalised response (MDA-MB-468) was 112%. The normalised response (MDA-MB-436) was 67.3%.

In the case of `CCN(CC)CCCC(C)Nc1c2ccc(Cl)cc2nc2ccc(OC)cc12` (stereo unspecified) [Mepacrine] (5 nM), the normalised response (BT-474) is reported as 99.3%, the normalised response (MFM-223) is reported as 85% and the normalised response (BT-549) is reported as 90.3%. It also gave a normalised response (CAL-51) of 99.9%, a normalised response (HCC1143) of 121% and a normalised response (HCC1599) of 110%. The normalised response (Hs578T) was 92.1%, the normalised response (DU-4475) was 105% and the normalised response (MCF-10A) was 113%. It also gave a normalised response (CAL-120) of 102%, a normalised response (CAL-85-1) of 97.2% and a normalised response (CAL-148) of 91%. For the same compound, the normalised response (HDQ-P1) was 102%, the normalised response (MDA-MB-453) was 100% and the normalised response (MDA-MB-468) was 75.9%. The normalised response (MDA-MB-436) was 74%.

With `Cc1cn(-c2cc(NC(=O)c3ccc(C)c(Nc4nccc(-c5cccnc5)n4)c3)cc(C(F)(F)F)c2)cn1` [Nilotinib] (1 nM) the normalised response (BT-474) was 102%, the normalised response (MFM-223) was 104% and the normalised response (HCC1937) was 65.2%. It also gave a normalised response (BT-549) of 94.1%, a normalised response (CAL-51) of 107% and a normalised response (HCC1599) of 92.5%. For the same compound, the normalised response (MDA-MB-231) was 100%, the normalised response (Hs578T) was 107% and the normalised response (DU-4475) was 98.3%. For the same compound, the normalised response (MCF-10A) was 98.4%, the normalised response (CAL-120) was 95.1% and the normalised response (CAL-85-1) was 97.1%. For the same compound, the normalised response (CAL-148) was 98.8%, the normalised response (HDQ-P1) was 70.8% and the normalised response (MDA-MB-453) was 97.3%. It also gave a normalised response (MDA-MB-436) of 92.4%.

With `OC[C@H]1O[C@@H](n2cnc3c2N=CNC[C@H]3O)C[C@@H]1O` [Pentostatin] (1 nM) the normalised response (BT-474) was 96.9%, the normalised response (MFM-223) was 98.7% and the normalised response (HCC1937) was 106%. It also gave a normalised response (BT-549) of 93.1%, a normalised response (CAL-51) of 118% and a normalised response (HCC1599) of 101%. It also gave a normalised response (MDA-MB-231) of 63.3%, a normalised response (Hs578T) of 103% and a normalised response (DU-4475) of 104%. It also gave a normalised response (MCF-10A) of 108%, a normalised response (CAL-120) of 101% and a normalised response (CAL-85-1) of 99.9%. The normalised response (CAL-148) was 102%, the normalised response (HDQ-P1) was 88.8% and the normalised response (MDA-MB-453) was 98.6%. For the same compound, the normalised response (MDA-MB-468) was 73.3% and the normalised response (MDA-MB-436) was 98%.

`CCCCCCCCCCCCCCCCCCOP(=O)([O-])OC1CC[N+](C)(C)CC1` [Perifosine] (0.25 nM) showed a normalised response (BT-474) of 94.6%, a normalised response (MFM-223) of 102% and a normalised response (HCC1937) of 92.7%. The normalised response (BT-549) was 102%, the normalised response (CAL-51) was 95.8% and the normalised response (HCC1143) was 77.3%. It also gave a normalised response (HCC1599) of 95%, a normalised response (MDA-MB-231) of 112% and a normalised response (DU-4475) of 108%. For the same compound, the normalised response (MCF-10A) was 109%, the normalised response (CAL-120) was 99.6% and the normalised response (CAL-85-1) was 98.5%. It also gave a normalised response (CAL-148) of 99%, a normalised response (HDQ-P1) of 105% and a normalised response (MDA-MB-453) of 94.3%. The normalised response (MDA-MB-468) was 106% and the normalised response (MDA-MB-436) was 66.2%.

Compound `CN(C)CCOc1ccc(/C(=C(/CCCl)c2ccccc2)c2ccccc2)cc1` [Toremifene] (1 nM) has a normalised response (BT-474) of 93.6%, a normalised response (MFM-223) of 101% and a normalised response (HCC1937) of 85.1%. For the same compound, the normalised response (BT-549) was 96.6%, the normalised response (CAL-51) was 109% and the normalised response (HCC1143) was 117%. For the same compound, the normalised response (HCC1599) was 97.8%, the normalised response (MDA-MB-231) was 106% and the normalised response (Hs578T) was 110%. It also gave a normalised response (DU-4475) of 103%, a normalised response (CAL-120) of 103% and a normalised response (CAL-85-1) of 98.4%. The normalised response (CAL-148) was 75.8%, the normalised response (HDQ-P1) was 88.2% and the normalised response (MDA-MB-453) was 106%. It also gave a normalised response (MDA-MB-468) of 98.4% and a normalised response (MDA-MB-436) of 96.1%.
